This is one part of the list.

Amino acid sequences for entries named in this document (tags omitted).
UniProt Q0JBA9, entry or part of it: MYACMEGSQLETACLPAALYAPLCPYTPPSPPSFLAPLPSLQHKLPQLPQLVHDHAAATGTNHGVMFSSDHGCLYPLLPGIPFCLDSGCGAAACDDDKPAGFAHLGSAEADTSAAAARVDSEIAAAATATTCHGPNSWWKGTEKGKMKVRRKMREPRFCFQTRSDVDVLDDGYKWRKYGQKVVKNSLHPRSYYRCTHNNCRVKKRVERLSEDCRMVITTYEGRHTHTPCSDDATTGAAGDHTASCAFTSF

The test deals with OsWRKY34 (Oryza sativa, UniProt Q0JBA9 1-250). The test is described as follows: protein-binding microarray (RPBM); PBS, 2% BSA, 51.3 ng/ul salmon testes DNA, 50 uM zinc acetate, 200 nM TF, 25 C, 1 h; high values mean tight binding. Particulars: protein: recombinant; tags: N-terminal polyhistidine and DsRed monomer fusion (pET32a); label: CyDye5-dUTP incorporated in the synthesized complementary strand; 3' TTTTT single-stranded linker to array surface; dsDNA, one strand shown. The procedure, abridged: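 Polyhistidine-tagged DsRed fusions of transcription factors, joined at the N-terminus, were expressed in E. coli BL21-CodonPlus and isolated on Ni–NTA. They were incubated at 200 nM for 1 h at 25 °C on a custom Agilent array, double-stranded and BSA-blocked, in PBS with 2% BSA, salmon testes DNA and 50 µM zinc acetate. The binding signal is per-feature fluorescence intensity (arbitrary units) read on an Axon 4000B scanner after washing.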
As to “ATCGCTTTTCAAACCTGTCCAAATGTCTATTTTCTCAGTTCGGAGTCACCTAGTGCAG”, the binding signal is 11700 fluorescence intensity (a.u.).

With “TTTGGCATTAACCAGTCCTGCTTTCCTCTACTTTAATCACCGGAGTCACCTAGTGCAG”, the binding signal was 8450 fluorescence intensity (a.u.).

Regarding “ATGATTTAGCCAGACAATGGTTCATCATCCATCCTTGATTCGGAGTCACCTAGTGCAG”, the binding signal is 10400 fluorescence intensity (a.u.).

In the case of “TTCTCTCTCTCCTGTGTTTTGTCTACCACGTTCTCAACCCCGGAGTCACCTAGTGCAG”, the binding signal is 12300 fluorescence intensity (a.u.).

On to “GTGGGTGGGTTTTCTTCTCCAACGAAACTCTATCCCCTCTCGGAGTCACCTAGTGCAG”, for which the binding signal was 13200 fluorescence intensity (a.u.).

Consider “TGCATTTGTTCTTGATTTTAATTTTGTTTTTGCTCATGGTCGGAGTCACCTAGTGCAG”, for which the binding signal is 9670 fluorescence intensity (a.u.).

Regarding “TCCGAAGTCTCCTCTTGTCACCAGCACGCTTGAGCTCCCGCGGAGTCACCTAGTGCAG”, the binding signal was 8380 fluorescence intensity (a.u.).

For “CTAACTTATGTTTTATTCCACAATGTCTATTGTTCACCTTCGGAGTCACCTAGTGCAG”, the binding signal was 8060 fluorescence intensity (a.u.).

In the case of “GCAGGCACAATAGCATACTATAAACCAACTATAAACACACCGGAGTCACCTAGTGCAG”, the binding signal is 8520 fluorescence intensity (a.u.).

With “TATACCATTAATATTTGCGTATTTGTAATGATGCTATTGCCGGAGTCACCTAGTGCAG”, the binding signal is 8380 fluorescence intensity (a.u.).

As for “TTCGCGGCTTCGCCTATCATGCTCACTGCCTAACGGCCTCCGGAGTCACCTAGTGCAG”, the binding signal was 8250 fluorescence intensity (a.u.).

Regarding “ACAGCTTGCCGCCACCACCACACCACGCCGCTCGCCGCCCCGGAGTCACCTAGTGCAG”, the binding signal was 8950 fluorescence intensity (a.u.).

Consider “TTAGGGGTTTTCATTATACTGTAAGTATATCTTTTTATTTCGGAGTCACCTAGTGCAG”, for which the binding signal was 11600 fluorescence intensity (a.u.).

Consider “CGCCTATATATTTGAAACTATACACACATCGTCGTCTATGCGGAGTCACCTAGTGCAG”, for which the binding signal was 8610 fluorescence intensity (a.u.).

Regarding “ATCACAGGTATGCTCCCATACATCTTTTGCATTTGTACTACGGAGTCACCTAGTGCAG”, the binding signal is 9210 fluorescence intensity (a.u.).

For “CGTACATTCCTCAGCCATGTATTCTTACGCTCCGGCCCTCCGGAGTCACCTAGTGCAG”, the binding signal is 8060 fluorescence intensity (a.u.).

With “GACCATGATTAAATGATGTCGATGTTTTCACTTCTTTTTCCGGAGTCACCTAGTGCAG”, the binding signal was 8280 fluorescence intensity (a.u.).

On to “CTCTCGTCCTCGTCCGCTTCCAGATTCAGATCCACCCATCCGGAGTCACCTAGTGCAG”, for which the binding signal is 9630 fluorescence intensity (a.u.).

As for “AGTAGGAGGCTGGGTGGTTGTGGGTAAGATGAAAAGAAATCGGAGTCACCTAGTGCAG”, the binding signal was 10200 fluorescence intensity (a.u.).

Regarding “ACCCACAGGCTAGTTCCACATCAGAACCAACCGCTTCCCTCGGAGTCACCTAGTGCAG”, the binding signal was 9790 fluorescence intensity (a.u.).

Turning to “TGCCTAATTGATTAGTACTAGATACTTTCTGCATCACTACCGGAGTCACCTAGTGCAG”, the binding signal was 9390 fluorescence intensity (a.u.).

With “CCATGTTCCTCACCTCTGTACCCCACTAATCACCCATCTTCGGAGTCACCTAGTGCAG”, the binding signal is 8500 fluorescence intensity (a.u.).

Turning to “ACGCTTGTTAGCTGTTCTGGTGAGTGACATGTAGCCCTCTCGGAGTCACCTAGTGCAG”, the binding signal is 8040 fluorescence intensity (a.u.).

As for “CTGTTCAGATTTATTGTCCTATAATATATATACGGTTTTTCGGAGTCACCTAGTGCAG”, the binding signal is 8060 fluorescence intensity (a.u.).

Take “ACATCTACACTCACCGCCTCACTACGCTCGCCGTACACAACGGAGTCACCTAGTGCAG”: the binding signal is 9360 fluorescence intensity (a.u.).

Turning to “GCCGGCGGCGGCCGCTTCCGCCTCCATCTTCGTGGGCCTCCGGAGTCACCTAGTGCAG”, the binding signal is 8780 fluorescence intensity (a.u.).

Regarding “TATGCCTATCTGAATTGGTTACTGTTCGTTTTTCCACTTACGGAGTCACCTAGTGCAG”, the binding signal is 10800 fluorescence intensity (a.u.).

On to “GGTCAGGCACTCACTCTTCTCCGCTATCCACACCCTCTCTCGGAGTCACCTAGTGCAG”, for which the binding signal is 8070 fluorescence intensity (a.u.).

With “TTACCGTACCGTCATCTTCTTCTCCGTCTCTCTCTTTTTCCGGAGTCACCTAGTGCAG”, the binding signal is 9800 fluorescence intensity (a.u.).

Consider “AAGTGACCTCTCTCTCTCTCTCTCTCTCTCTCTCTCTCTCCGGAGTCACCTAGTGCAG”, for which the binding signal is 9940 fluorescence intensity (a.u.).

As for “ACTTATAAAACCGTTCACTTCACGTTCTTTGGTGTTTTTGCGGAGTCACCTAGTGCAG”, the binding signal is 12200 fluorescence intensity (a.u.).

For “AATGACGTTAATTTTTGTTTATTTTTAGCCTTTTTAATTTCGGAGTCACCTAGTGCAG”, the binding signal is 8420 fluorescence intensity (a.u.).

For the sequence “AATGTTATACACGTACGAGTGGGAAACACTACCTTATGTTCGGAGTCACCTAGTGCAG”, the binding signal was 8940 fluorescence intensity (a.u.).

Regarding “TATAGCCCACCTCAACCCCGTCTCCAACATCATCCTCGAGCGGAGTCACCTAGTGCAG”, the binding signal is 8400 fluorescence intensity (a.u.).

For the sequence “GCCAATTCGTTCGTTTCTTCTTAAGTTCCACAGAATCCCACGGAGTCACCTAGTGCAG”, the binding signal was 10500 fluorescence intensity (a.u.).

Take “ATTTGATTTATTGTTAAATATACTTTCATGTACACATATACGGAGTCACCTAGTGCAG”: the binding signal was 8240 fluorescence intensity (a.u.).

Consider “TACACATATTACGTATTGGAGTCCGTGCTGCAGCTAGCTACGGAGTCACCTAGTGCAG”, for which the binding signal was 8130 fluorescence intensity (a.u.).

For “ATTGCTATGTTATCTTCCAAGCCTTCTAAACAAGGTCCTACGGAGTCACCTAGTGCAG”, the binding signal is 8100 fluorescence intensity (a.u.).

“ACCTCTCCTACTCGTGGATTTCTTTTTGTTCCTTTCTTTCCGGAGTCACCTAGTGCAG”: the binding signal was 8440 fluorescence intensity (a.u.).

With “CTCCAGTTCTCCACCATCACACGATCGAGCATCTCGGGGCCGGAGTCACCTAGTGCAG”, the binding signal is 8280 fluorescence intensity (a.u.).

Turning to “AGTGTGTCTATATCAGATCAAACAGTACCCTTGGTTTTATCGGAGTCACCTAGTGCAG”, the binding signal was 8220 fluorescence intensity (a.u.).

Consider “TTATTGCTGGGTTCCTCTTGTCTCATTGTCTATGGTGGTACGGAGTCACCTAGTGCAG”, for which the binding signal was 9820 fluorescence intensity (a.u.).

For the origin of these results see publication PMC7819943, “Rice protein-binding microarrays: a tool to detect cis-acting elements near promoter regions in rice”.
